Test results as given in PubChem BioAssay AID493014 (National Center for Advancing Translational Sciences (NCATS), 2011).
The list shows a part of the results. These are further read-outs of the screen, such as a control signal, another cell line or another target. No call is given for them. The list favours compounds with an active or inconclusive main result. Words in brackets tell the shape of the fitted curve; partial curves, single points and poor fits give uncertain potencies.

Assay: qHTS Assay to Find Inhibitors of Chronic Active B-Cell Receptor Signaling
Conditions: ABC-DLBCL IkBa-CBG/CBR reporter, luminescence ratio (green luciferase fused to IkBa over red control in TMD8 lymphoma cells), 4 h
Method in brief: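 Cell line TMD8 (human ABC DLBCL), stably expressing tet-inducible CBG68-IkBa fusion and CBR; IMDM/0.5% FBS; cpd up to 46 uM; dox induction, 4 h, 37C/5% CO2; dual luminescence; green/red ratio; MG132 control.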

[1] = measured here: CBR red luminescence, cell number
[2] = measured here: IkBa-CBG green luminescence

Structure (SMILES) | AC50 [1] | AC50 [2]
Cc1ccc(CNC(=O)C2CCN(S(=O)(=O)N3CCCCC3)CC2)cc1 | 5.62 µM [rising, single point] | –
CC(=O)Nc1ccc(SCC(=O)Nc2ccc(Cl)cn2)cc1 | 35.5 µM [falling, single point] | –
CC1(C)Cc2c(sc3c2c(=N)n(Cc2ccco2)c(=O)n3Cc2ccccc2)CO1 | 9.2 µM [falling, partial curve, poor fit] | –
Cc1[nH]c2ccccc2c1C(=O)CSc1ccc(F)cc1 | 9.2 µM [rising, partial curve] | –
Cc1c(C#N)c(NC(=O)CCl)n(Cc2cccs2)c1C | 0.562 µM [falling, full curve, poor fit] | –
Cc1ccc(NC(=S)NCC2CCN(C(C)c3ccccc3)C2)cc1 (stereo not drawn) | 0.794 µM [rising, full curve] | –
O=C(Nc1nnc(C2CC2)s1)c1cc2ccccc2o1 | 1.46 µM [falling, full curve] | –
O=C(CNC(=S)N(CCCN1CCOCC1)Cc1cccs1)NCc1ccc(Cl)cc1 | 11.2 µM [falling, partial curve, poor fit] | –
CCOC(=O)CCSCC(=O)Nc1cc(C)on1 | 14.1 µM [rising, partial curve, poor fit] | –
Cc1ccc(C(=O)/C=C/c2ccccc2)o1 | 29.1 µM [falling, single point] | –
CCOc1ccccc1Nc1ncnc2c1cnn2-c1ccc(C)cc1 | 6.31 µM [falling, full curve, poor fit] | –
NC(=O)c1ccc(-c2ncc(-c3ccccc3)o2)cc1 | – | 11.2 µM [falling, partial curve, poor fit]
Cc1nnc(NC2(C(F)(F)F)C(=O)Nc3c2c(=O)n(C)c(=O)n3C)s1 (stereo not drawn) | 0.651 µM [falling, partial curve, poor fit] | –
COc1ccc(CN(C(=O)CN2C(=O)NC3(CCC(C)CC3)C2=O)C(C)Cc2cccs2)cc1 (stereo not drawn) | 3.66 µM [rising, full curve, poor fit] | –
COc1cccc(NC(=O)CCCOc2cc(=O)n(C)c3ccccc23)c1 | 0.517 µM [rising, full curve, poor fit] | 0.58 µM [falling, partial curve, poor fit]
C=CCNC(=S)N/N=C/c1ccc(C(F)(F)F)cc1 | – | 35.5 µM [falling, partial curve, poor fit]
O=C(Nc1ccc2c(c1)CCC2)c1cc(=O)[nH]c2ccccc12 | 3.98 µM [rising, partial curve, poor fit] | –
C(=N\Nc1nc(-c2ccccc2)cs1)/c1ccncc1 | 6.31 µM [falling, partial curve, poor fit] | –
Cc1ccc(C2=CC(=O)C[C@H](c3ccc(F)cc3)C2)cc1 | 5.17 µM [rising, partial curve, poor fit] | –
COc1ccc(CCN2CC(C(=O)OCC(=O)N(C)Cc3ccccc3)CC2=O)cc1OC (stereo not drawn) | 29.1 µM [falling, single point] | –
C=CCSc1nc2ccccc2n1C(=O)/C=C/c1cc(OC)c(OC)c(OC)c1 | 10 µM [falling, partial curve] | –

Structure (SMILES) | AC50 [1] | AC50 [2]
COc1cc(SC)ccc1C(=O)Nc1cccc(C2OCCCO2)c1 | 1.58 µM [falling, full curve] | –
Cc1ccccc1OCCCC(=O)Nc1nccs1 | 29.1 µM [falling, single point] | –
CC1CCCC(C)N1C(=O)COC(=O)CSc1ccc([N+](=O)[O-])cc1 (stereo not drawn) | 2.31 µM [falling, full curve, poor fit] | –
CC(C)(C)C(=O)/C=C1\SCC(=O)N1CC(=O)N1CCN(c2ccccc2)CC1 | 25.9 µM [rising, single point] | –
CCCCNC(=O)c1ccc2c(SCC(=O)O)c3c(nc2c1)CCCC3 | 1.3 µM [rising, full curve, poor fit] | –
CCOC(=O)N1CCN(CC(O)COC2CC(C)CCC2C(C)C)CC1 (stereo not drawn) | 14.6 µM [rising, partial curve, poor fit] | –
Nc1c(C(=O)Nc2ccccc2)sc2nc(-c3cccnc3)ccc12 | 11.2 µM [falling, single point] | –
N=C1/C(=C\c2ccc(OCc3ccccc3)cc2)C(=O)N=C2SC(N3CCCC3)=NN12 | 22.4 µM [rising, single point] | –
Cc1ccc(-n2cc(-c3ccccc3)c3c(N4CCCCC4)ncnc32)cc1 | 6.31 µM [rising, single point] | –
CC(=O)c1cc(C(=O)Nc2ccccc2C(=O)O)oc1C | 0.708 µM [falling, full curve] | –
Cc1ccc(C(=O)OCC(=O)c2ccccc2)cc1 | 35.5 µM [falling, single point] | –
CCOc1ccccc1OCCC(=O)Nc1ccc(F)c(Cl)c1 | 6.51 µM [rising, single point] | –
CCCCn1c(C2CCCCC2)nc2cc3[nH]c(=O)c(C(C)C)nc3cc21 | 7.08 µM [falling, partial curve, poor fit] | –
Nn1cnc2scc(-c3ccco3)c2c1=O | 3.55 µM [falling, full curve] | –
COc1cc(OC)cc(C(=O)Nc2c(F)cccc2F)c1 | 10.3 µM [falling, partial curve, poor fit] | –
Cc1ccc(C(=O)/C=C/c2ccc(F)cc2)o1 | 20.6 µM [falling, single point] | –
CCN(CC)C(=O)C1CCCN(Cc2ccc3c(c2)OCO3)C1 (stereo not drawn) | 6.51 µM [rising, partial curve, poor fit] | –
Cc1cccc(C(=O)Nc2cccc(NC(=O)c3ccccc3)c2)c1 | 35.5 µM [falling, single point] | –
C=CCOC(=O)C1=C[C@@H](c2csc3ccccc23)C[C@@H](OCc2ccc(CO)cc2)O1 | 35.5 µM [falling, single point] | –
C/C(=N\NC(=O)c1ccco1)c1ccc(NC(=O)c2ccccc2)cc1 | 7.08 µM [falling, partial curve] | –
CN1C(=O)Cc2cc(S(=O)(=O)N3CCN(c4cccc(Cl)c4)CC3)ccc21 | 5.01 µM [falling, full curve] | –

Structural class, those above with a thiophene ring, fused or not (7)
Structure (SMILES) | AC50 [1] | AC50 [2]
CC1(C)Cc2c(sc3c2c(=N)n(Cc2ccco2)c(=O)n3Cc2ccccc2)CO1 | 9.2 µM [falling, partial curve, poor fit] | –
Cc1c(C#N)c(NC(=O)CCl)n(Cc2cccs2)c1C | 0.562 µM [falling, full curve, poor fit] | –
O=C(CNC(=S)N(CCCN1CCOCC1)Cc1cccs1)NCc1ccc(Cl)cc1 | 11.2 µM [falling, partial curve, poor fit] | –
COc1ccc(CN(C(=O)CN2C(=O)NC3(CCC(C)CC3)C2=O)C(C)Cc2cccs2)cc1 (stereo not drawn) | 3.66 µM [rising, full curve, poor fit] | –
Nc1c(C(=O)Nc2ccccc2)sc2nc(-c3cccnc3)ccc12 | 11.2 µM [falling, single point] | –
Nn1cnc2scc(-c3ccco3)c2c1=O | 3.55 µM [falling, full curve] | –
C=CCOC(=O)C1=C[C@@H](c2csc3ccccc23)C[C@@H](OCc2ccc(CO)cc2)O1 | 35.5 µM [falling, single point] | –
